{"source": "PubChem BioAssay AID504774 (Drosophila RNAi Screening Center, 2011)", "test": "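Knock-downs that shift viability of MMS-exposed cells relative to untreated ones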 (primary screen)", "cells": "Drosophila Kc167 cells", "reagent": "long dsRNA against Drosophila genes, about 0.25 µg dsRNA per well", "time to read-out": "about 6 days: 3 days knock-down, then 3 days with or without MMS", "challenge": "methyl methanesulphonate 0.004% (w/v) for 3 days after knock-down", "measurement": "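ATP-dependent luminescence as a measure of live cells in MMS-exposed wells, quantile normalised within each plate, with replicate values also given as a mean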", "reading the numbers": "mean viability with MMS and viability with MMS: higher = more surviving cells after MMS", "note": "The deposit covers about 23,000 reagents; this is an unselected part of those with a known target gene and a result. 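Values are quantile-normalised luminescence on an arbitrary scale; higher means more cells surviving MMS.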 The numbers tell different reagents against one gene apart. Names joined by + are all predicted targets of the reagent. Not all columns of the deposit are shown."}
{"Gene": "CG18581 (GeneID 39633)", "reagent no.": 1, "mean viability with MMS": 3.56e6, "viability with MMS, replicate 1": 4.08e6}
{"Gene": "EMC4 (GeneID 40505)", "reagent no.": 1, "mean viability with MMS": 3.49e6, "viability with MMS, replicate 1": 4.00e6}
{"Gene": "Gle1 (GeneID 35849)", "reagent no.": 1, "mean viability with MMS": 3.34e6, "viability with MMS, replicate 1": 3.66e6}
{"Gene": "CG46441 (GeneID 42423)", "reagent no.": 1, "mean viability with MMS": 3.74e6, "viability with MMS, replicate 1": 4.19e6}
{"Gene": "CG33758 (GeneID 3772381)", "reagent no.": 1, "mean viability with MMS": 3.57e6, "viability with MMS, replicate 1": 4.14e6}
{"Gene": "CG3402 (GeneID 38077)", "reagent no.": 1, "mean viability with MMS": 3.28e6, "viability with MMS, replicate 1": 3.74e6}
{"Gene": "CG15480 (GeneID 34723)", "reagent no.": 1, "mean viability with MMS": 3.67e6, "viability with MMS, replicate 1": 4.21e6}
{"Gene": "CG12883 (GeneID 43326)", "reagent no.": 1, "mean viability with MMS": 3.57e6, "viability with MMS, replicate 1": 4.01e6}
{"Gene": "CG34022 (retired record) (GeneID 3885663)", "reagent no.": 1, "mean viability with MMS": 3.64e6, "viability with MMS, replicate 1": 4.29e6}
{"Gene": "CG3732 (GeneID 37588)", "reagent no.": 1, "mean viability with MMS": 3.57e6, "viability with MMS, replicate 1": 4.18e6}
{"Gene": "CG33330 (retired record) (GeneID 2768667)", "reagent no.": 1, "mean viability with MMS": 3.19e6, "viability with MMS, replicate 1": 3.77e6}
{"Gene": "CG33330 (retired record) (GeneID 2768667)", "reagent no.": 2, "mean viability with MMS": 3.65e6, "viability with MMS, replicate 1": 4.16e6}
{"Gene": "CG6357 (GeneID 36532)", "reagent no.": 1, "mean viability with MMS": 3.74e6, "viability with MMS, replicate 1": 4.27e6}
{"Gene": "WRNexo (GeneID 42208)", "reagent no.": 1, "mean viability with MMS": 3.65e6, "viability with MMS, replicate 1": 4.17e6}
{"Gene": "CG4702 (GeneID 41472)", "reagent no.": 1, "mean viability with MMS": 3.51e6, "viability with MMS, replicate 1": 3.89e6}
{"Gene": "snoRNA:Me28S-A982b + Uhg4 + snoRNA:Me28S-G3255a + 1 more", "reagent no.": 1, "mean viability with MMS": 3.67e6, "viability with MMS, replicate 1": 4.25e6}
{"Gene": "Dscam1 (GeneID 35652)", "reagent no.": 1, "mean viability with MMS": 3.57e6, "viability with MMS, replicate 1": 4.08e6}
{"Gene": "Dscam1 (GeneID 35652)", "reagent no.": 2, "mean viability with MMS": 3.65e6, "viability with MMS, replicate 1": 4.00e6}
{"Gene": "Dscam1 (GeneID 35652)", "reagent no.": 3, "mean viability with MMS": 3.61e6, "viability with MMS, replicate 1": 4.04e6}
{"Gene": "Dscam1 (GeneID 35652)", "reagent no.": 4, "mean viability with MMS": 3.60e6, "viability with MMS, replicate 1": 4.01e6}
{"Gene": "Dscam1 (GeneID 35652)", "reagent no.": 5, "mean viability with MMS": 3.45e6, "viability with MMS, replicate 1": 3.78e6}
{"Gene": "CG13526 (GeneID 37613)", "reagent no.": 1, "mean viability with MMS": 3.74e6, "viability with MMS, replicate 1": 4.25e6}
{"Gene": "CG11878 (GeneID 43050)", "reagent no.": 1, "mean viability with MMS": 3.40e6, "viability with MMS, replicate 1": 3.91e6}
{"Gene": "Lamp1 (GeneID 35411)", "reagent no.": 1, "mean viability with MMS": 3.56e6, "viability with MMS, replicate 1": 4.17e6}
{"Gene": "alphaCOP (GeneID 38199)", "reagent no.": 1, "mean viability with MMS": 3.55e6, "viability with MMS, replicate 1": 4.18e6}
{"Gene": "thr (GeneID 37042)", "reagent no.": 1, "mean viability with MMS": 3.15e6, "viability with MMS, replicate 1": 3.62e6}
{"Gene": "CG10939 (GeneID 44155)", "reagent no.": 1, "mean viability with MMS": 3.73e6, "viability with MMS, replicate 1": 4.29e6}
{"Gene": "CG10939 (GeneID 44155)", "reagent no.": 2, "mean viability with MMS": 3.65e6, "viability with MMS, replicate 1": 4.06e6}
{"Gene": "CG31687 + Cdc23", "reagent no.": 1, "mean viability with MMS": 3.08e6, "viability with MMS, replicate 1": 3.37e6}
{"Gene": "CG2983 (GeneID 33485)", "reagent no.": 1, "mean viability with MMS": 3.38e6, "viability with MMS, replicate 1": 3.76e6}
{"Gene": "CG11655 (GeneID 32472)", "reagent no.": 1, "mean viability with MMS": 3.47e6, "viability with MMS, replicate 1": 3.97e6}
{"Gene": "CG2145 (GeneID 32027)", "reagent no.": 1, "mean viability with MMS": 3.71e6, "viability with MMS, replicate 1": 4.26e6}
{"Gene": "alpha-Man-Ic (GeneID 318624)", "reagent no.": 1, "mean viability with MMS": 3.62e6, "viability with MMS, replicate 1": 4.08e6}
{"Gene": "CG32176 (GeneID 39944)", "reagent no.": 1, "mean viability with MMS": 3.71e6, "viability with MMS, replicate 1": 4.04e6}
{"Gene": "CG32176 (GeneID 39944)", "reagent no.": 2, "mean viability with MMS": 3.55e6, "viability with MMS, replicate 1": 4.04e6}
{"Gene": "CG8180 (GeneID 36713)", "reagent no.": 1, "mean viability with MMS": 3.59e6, "viability with MMS, replicate 1": 4.14e6}
{"Gene": "CG8180 (GeneID 36713)", "reagent no.": 2, "mean viability with MMS": 3.29e6, "viability with MMS, replicate 1": 3.75e6}
{"Gene": "CG40245 (retired record) (GeneID 3354884)", "reagent no.": 1, "mean viability with MMS": 2.36e6, "viability with MMS, replicate 1": 4.07e6}
{"Gene": "CG4641 (retired record) (GeneID 39053)", "reagent no.": 1, "mean viability with MMS": 3.53e6, "viability with MMS, replicate 1": 3.92e6}
{"Gene": "CG9452 (GeneID 40119)", "reagent no.": 1, "mean viability with MMS": 3.61e6, "viability with MMS, replicate 1": 4.03e6}
{"Gene": "CG9452 (GeneID 40119)", "reagent no.": 2, "mean viability with MMS": 3.17e6, "viability with MMS, replicate 1": 3.21e6}
{"Gene": "CG12310 (GeneID 39634)", "reagent no.": 1, "mean viability with MMS": 3.53e6, "viability with MMS, replicate 1": 4.06e6}
{"Gene": "Obp47b + CG7741", "reagent no.": 1, "mean viability with MMS": 3.86e6, "viability with MMS, replicate 1": 4.40e6}
{"Gene": "GstD5 (GeneID 48338)", "reagent no.": 1, "mean viability with MMS": 3.60e6, "viability with MMS, replicate 1": 4.06e6}
{"Gene": "CG7778 (GeneID 34147)", "reagent no.": 1, "mean viability with MMS": 3.77e6, "viability with MMS, replicate 1": 4.34e6}
